Measured values from PubChem BioAssay AID1845224 (National Center for Advancing Translational Sciences (NCATS), 2023).
Inconclusive results, whose numbers are uncertain, are shown with a selection of clear calls. Potencies of inconclusive entries are doubtful fits and often do not repeat. Active and inactive are the calls of the source. Calls come from the whole dose curve; as a rule, active = well fitted curve in the direction sought with a large enough effect; inconclusive = small, poorly fitted or top-dose-only effect, or another doubt; inactive = no such curve, though single readings can be large or run the other way.

What follows are compounds tested on NanoLuc luciferase (engineered Oplophorus gracilirostris luciferase) (assay: Confirmatory Nanoluciferase (NLuc) qHTS assay for identification of artifact compounds.). Settings: secreted NLuc in S16 cell medium, luminescence, 5 min; series mostly up to 39 µM; activity change, negative = inhibition: at the top concentration.
Text: PI: Alexander Tropsha Ph.D. UNC Eshelman School of Pharmacy University of North Carolina, Chapel Hill, North Carolina Hits from high-throughput screening (HTS) of chemical libraries are often false positives due to their interference with the assay detection technology. In response to this problem, we generated the largest publicly available library of chemical liabilities and developed a free webtool to predict HTS artifacts, both of which are described herein. More specifically, we generated, curated, and integrated HTS datasets for thiol reactivity, redox activity, and luciferase (firefly and nano) activity. Using these curated datasets, we developed and validated several Quantitative Structure-Interference Relationship (QSIR) models to predict nuisance behavior. […] These models were employed for virtual profiling of the National Center for Advancing Translational Science's (NCATS) in-house library, and 256 compounds for each assay were selected for the experimental validation of nuisance behavior. The BA for these external predictions ranged from 58 to 78% for compounds within the applicability domains of the models. […] The models developed in this study, along with aggregation models previously developed by our group (SCAM Detective) were implemented in "Liability Predictor," an online tool which may be used as part of chemical library design or for triaging HTS hits. Both the models and the curated datasets are publicly available at https://liability.mml.unc.edu/.
PROTOCOL TABLE SEQUENCE No. (e.g., 1, 2, 3, etc.); PARAMETER (e.g., Cells, Incubation, Reagent, etc.); VALUE; DESCRIPTION. 1; Reagent; 2 uL; Nanoluciferase media. 2; Compounds and control; 16 nL; Kalypsis pin tool (Wako USA) equipped with a 1536-well pin head. 3; Incubation; 15 min. 4; Reagent; 2 uL; Luciferase enzyme. 5; Incubation; 5 min. 6; Detection; Luminescence, ViewLux microplate reader. NOTES (numbers refer to Sequence numbers above) 1. Medium was collected from the culture flasks of NLuc-expressing S16 cells (80% confluent) prior to cell plating, filtered through a 0.22um filter, and frozen at -20C prior to use. Media was diluted (1:55) and 2 uL was dispensed into all wells of a 1536-well assay plate (solid-bottom white plate; Greiner Bio One, Monroe, NC). 2. A Wako Pin-tool (Wako Automation, Richmond, VA) was used to transfer 16 nL of compounds (consisting of 7-plates in qHTS format, final concentration range 18.3 nM to 114 uM) or control Cilnidipine (final concentration range 623 nM to 80 uM). 3. 15 min. incubation at room temperature protected from light. 4. 2 uL of NLuc substrate (1:100 in Nano-Glo luciferase buffer; Nano-Glo luminescence assay, Promega, Madison, WI) was dispensed for a final assay volume of 4 uL. 5. Plates were centrifuged (121xg, 15 seconds) and incubated for 5 minutes. 6. Samples were read for luminescence on a ViewLux CCD imager (PerkinElmer). Data were normalized to no-enzyme (0% activity) and no-inhibitor (DMSO; 100%) controls and the resulting percent inhibition data were fitted to a 4-parameter Hill equation using NCATS in-house software.
Potency is the fitted concentration of half-maximal effect.
Throughout, for activity change, negative = inhibition: % of control where 0% means no effect.

Potency, inconclusive:
COc1ccc(-c2ccc(=O)n(CC(=O)Nc3ccc(OC)c(OC)c3)n2)cc1 13.7 µM [inhibitor, partial curve, poor fit]
COc1ccc(CCn2c3c(c(=O)[nH]c2=S)CN(C(C)C)CN3)cc1OC 15.4 µM [inhibitor, partial curve]
Cc1ccc(Cl)cc1NC(=O)c1cc(-c2ccc3c(c2)OCCO3)on1 17.2 µM [inhibitor, partial curve, poor fit]
Cc1cccc(-c2nc(C)c(CCNC(=O)c3cccs3)s2)c1 15.4 µM [inhibitor, partial curve, poor fit]
Cc1ccc2[nH]c(=O)c3cc(C(=O)NCc4cccc(Cl)c4)sc3c2c1 1.94 µM [inhibitor, partial curve, poor fit]
CCOC(=O)c1c(S(=O)(=O)N2CCCC(C(=O)N3CCN(c4ccc(F)cc4)CC3)C2)c(C)n(C)c1C (stereo not given) 0.109 µM [inhibitor, full curve, poor fit]
CCC(=O)Nc1ccc(CC)cc1-c1nc2ccccc2n(CC(=O)Nc2ccccc2C)c1=O 15.4 µM [inhibitor, partial curve, poor fit]
Cc1ccc(-c2nnc(NC(=O)c3ccc4c(c3)OCCO4)o2)c(C)c1 13.7 µM [inhibitor, partial curve, poor fit]
CC(=O)OC1CC2C(C)(C)C(=O)C=C[C@]2(C)C2CC[C@@]3(C)C(c4ccoc4)OC(=O)C4O[C@@]43[C@]12C (stereo not given in full) 5.45 µM [inhibitor, partial curve, poor fit]
Cc1ccc(CC(=O)NCc2nc(-c3cccc(C)c3)no2)cc1 19.4 µM [inhibitor, partial curve, poor fit]
O=C(Cc1cccs1)NC1CC(=O)N(c2ccccc2)C1 (stereo not given) 13.7 µM [inhibitor, single point]
C(=C\c1ccc2ccccc2n1)/c1ccc2c(c1)OCO2 19.4 µM [inhibitor, partial curve, poor fit]
COc1ccc(S(=O)(=O)N(CC(=O)NC(C)c2ccccc2)c2ccc(C)cc2)cc1OC (stereo not given) 19.4 µM [inhibitor, partial curve]
Cc1cccc(C(=O)NCCc2nc3ccccc3n2CCC(C)C)c1 19.4 µM [inhibitor, partial curve, poor fit]
Cc1cccc(C(=O)Nc2ccc(-c3nc4ncccc4o3)cc2C)c1 15.4 µM [inhibitor, partial curve, poor fit]
CCOC(=O)c1[nH]c(C)c(CCC(=O)NCc2ccc(N(C)C)cc2)c1C 19.4 µM [inhibitor, partial curve, poor fit]
O=C(Nc1cccnc1Cl)c1cc(-c2cccc(Cl)c2)on1 6.12 µM [inhibitor, full curve, poor fit]
COc1ccc(CNC(=O)c2sc3nc4n(c(=O)c3c2C)CCCC4)cc1 6.87 µM [inhibitor, partial curve, poor fit]
CCc1cccc(NC(=O)CN2CCCN(Cc3cccc(C)c3)S2(=O)=O)c1 2.44 µM [inhibitor, partial curve]
COc1ccc(Cn2cc(C(=O)c3ccc(Cl)cc3)c(=O)c3cc4c(cc32)OCO4)cc1 15.4 µM [inhibitor, partial curve, poor fit]
O=C(Nc1cccc(Br)c1)c1cc(-c2ccc3c(c2)OCCO3)on1 15.4 µM [inhibitor, partial curve, poor fit]
Cc1ccc(CN(C(=O)COc2c(C)cccc2C)C2CCS(=O)(=O)C2)o1 (stereo not given) 17.2 µM [inhibitor, partial curve, poor fit]
CC1CCCCN1S(=O)(=O)c1cc2c3c(c1)CC(=O)N3CCC2 (stereo not given) 3.44 µM [inhibitor, partial curve, poor fit]

Potency, active:
O=C(Oc1ccccc1Cl)c1cc(-c2ccc3c(c2)OCCO3)on1 1.54 µM
N#C/C(=C\c1ccc(-c2cc(Cl)ccc2Cl)o1)C(=O)Nc1ccccc1C(=O)O 12.2 µM
O=C(CCS(=O)(=O)c1nc(-c2ccc3c(c2)OCO3)cc(C(F)(F)F)n1)Nc1ccccc1C(F)(F)F 12.2 µM

Activity change, negative = inhibition, inactive:
CCOc1ccccc1NC(=O)Cn1c(=O)n(CCCC(=O)NCc2ccc(C)cc2)c(=O)c2ccccc21 -7.35%
COc1ccccc1CNC(=O)c1nn(-c2ccc(C)cc2)c(=O)c2c1c1ccccc1n2C -1.11%
O=C(Nc1cc(-c2ccc(F)c(F)c2)no1)c1ccccc1F -7.28%
Oc1ccc(-c2csc(-c3ccc(F)cc3)n2)c(O)c1 -9.63%
COc1ccc(C(=O)Nc2ccc(-c3nc4ncccc4o3)cc2)cc1 -15.3%
CCCCn1c(SCC(=O)Nc2ccc(F)cc2)nc2c(sc3ccccc32)c1=O -15.2%
COc1ccc(-c2noc(N3CCC(C(=O)N4CCN(c5cccc(C)c5C)CC4)CC3)n2)cc1 -5.97%
CCOC(=O)N1CCN(S(=O)(=O)N2CCCC(C(=O)NCc3cc(OC)ccc3OC)C2)CC1 (stereo not given) -22.6%
COC(=O)C1=C[C@@H](C(=O)OC)C2C3=C(C(=O)[C@]2(C)NC(=O)c2ccccc2)[C@H](C)n2c(=O)n(C)c(=O)n2[C@@H]3C1 (stereo not given in full) -5.36%
O=C(OCC#CCSc1nnc(-c2ccc3ccccc3c2)o1)c1ccsc1 -10.1%
COc1ccc(CC(N)C(=O)N[C@H]2[C@@H](O)[C@H](n3cnc4c(N(C)C)ncnc43)O[C@@H]2CO)cc1 (stereo not given in full) -0.358%
CCC1Oc2ccccc2N(CC(=O)NCc2ccc(C)cc2)C1=O (stereo not given) -14.7%
OCC(O)C(O)C(OC1OC(CO)C(O)C(O)C1O)C(O)CO (stereo not given) 4.48%
COC(=O)c1c(NC(=O)c2nc(SCc3cccc(C)c3)ncc2Cl)sc2c1CCCC2 -4.52%

Quoted at random: 4 entries already listed.
Activity change, negative = inhibition, inactive:
Oc1ccc(-c2csc(-c3ccc(F)cc3)n2)c(O)c1 -9.63%
CCOc1ccccc1NC(=O)Cn1c(=O)n(CCCC(=O)NCc2ccc(C)cc2)c(=O)c2ccccc21 -7.35%
COC(=O)C1=C[C@@H](C(=O)OC)C2C3=C(C(=O)[C@]2(C)NC(=O)c2ccccc2)[C@H](C)n2c(=O)n(C)c(=O)n2[C@@H]3C1 (stereo not given in full) -5.36%
COc1ccc(-c2noc(N3CCC(C(=O)N4CCN(c5cccc(C)c5C)CC4)CC3)n2)cc1 -5.97%
